# Reference: the supplement of paper PMC8728848
# Some of the results follow.
# B1: EUL D1A first (Oryza sativa) (protein)
# chain: MFGFGHHHNQAPAAPSDPNQIFKIFCRANENYCLTVRDSAVVLAPVNPKDEHQHWFKDMRFSTKVKDGEGMPAFALVNKATGLAVKHSLGQSHPVKLVPFNPEYEDASVLWTESKDVGKGFRCIRMVNNTRLNLDAFHGDKDHGGVRDGTTVVLWEWCKGDNQSWKILPWGPEAHSSSPGAATILEQKLISEEDLNSAVDHHHHHH
# How the values were obtained:
# Assay in all cases: glycan array binding signal (z-score within array); higher = stronger binding
# Conditions in all cases: glycan notation: IUPAC condensed, linker removed
# [1] = target: Gal(b1-3)GlcNAc(b1-2)Man(a1-3)[Gal(b1-3)GlcNAc(b1-2)Man(a1-6)]Man(b1-4)GlcNAc(b1-4)[Fuc(a1-6)]GlcNAc
# Procedure, shortened: (§1)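 Negative Z-scores can be read as non-binding. The Z-score is calculated within each array and then averaged across arrays of one protein sequence at different concentrations or buffers and across linkers. Arrays, 3228 in all, were curated from the Consortium for Functional Glycomics database and kept only where the protein sequence was available.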
# [2] = target: Gal(b1-3)GlcNAc(b1-2)Man(a1-3)[GlcNAc(b1-4)][Gal(b1-3)GlcNAc(b1-2)Man(a1-6)]Man(b1-4)GlcNAc(b1-4)GlcNAc
# Procedure, shortened: as §1
# [3] = target: Gal(b1-3)GlcNAc(b1-2)[Gal(b1-3)GlcNAc(b1-6)]Man(a1-6)[Gal(b1-3)GlcNAc(b1-2)Man(a1-3)]Man(b1-4)GlcNAc(b1-4)GlcNAc
# Procedure, shortened: as §1
# [4] = target: Gal(b1-3)GlcNAc(b1-3)Gal(b1-3)GlcNAc
# Procedure, shortened: as §1
# [5] = target: Gal(b1-3)GlcNAc(b1-3)Gal(b1-4)Glc
# Procedure, shortened: as §1
# [6] = target: Gal(b1-3)GlcNAc(b1-3)Gal(b1-4)GlcNAc
# Procedure, shortened: as §1
# [7] = target: Gal(b1-3)GlcNAc(b1-3)Gal(b1-4)GlcNAc(b1-2)Man(a1-3)[Gal(b1-3)GlcNAc(b1-3)Gal(b1-4)GlcNAc(b1-2)Man(a1-6)]Man(b1-4)GlcNAc(b1-4)GlcNAc
# Procedure, shortened: as §1
# [8] = target: Gal(b1-3)GlcNAc(b1-3)Gal(b1-4)GlcNAc(b1-2)[Gal(b1-3)GlcNAc(b1-3)Gal(b1-4)GlcNAc(b1-6)]Man(a1-6)[Gal(b1-3)GlcNAc(b1-3)Gal(b1-4)GlcNAc(b1-2)Man(a1-3)]Man(b1-4)GlcNAc(b1-4)[Fuc(a1-6)]GlcNAc
# Procedure, shortened: as §1
# [9] = target: Gal(b1-3)GlcNAc(b1-3)Gal(b1-4)GlcNAc(b1-3)Gal(b1-4)GlcNAc(b1-2)[Gal(b1-3)GlcNAc(b1-3)Gal(b1-4)GlcNAc(b1-3)Gal(b1-4)GlcNAc(b1-6)]Man(a1-6)[Gal(b1-3)GlcNAc(b1-3)Gal(b1-4)GlcNAc(b1-3)Gal(b1-4)GlcNAc(b1-2)Man(a1-3)]Man(b1-4)GlcNAc(b1-4)[Fuc(a1-6)]GlcNAc
# Procedure, shortened: as §1
# [10] = target: Gal(b1-3)GlcNAc(b1-3)Gal(b1-4)GlcNAc(b1-6)[Gal(b1-3)GlcNAc(b1-3)]Gal(b1-4)Glc
# Procedure, shortened: as §1
# [11] = target: Gal(b1-3)GlcNAc(b1-3)Gal(b1-4)[Fuc(a1-3)]GlcNAc
# Procedure, shortened: as §1
# [12] = target: Gal(b1-3)GlcNAc(b1-3)Gal(b1-4)[Fuc(a1-3)]GlcNAc(b1-6)[Gal(b1-3)GlcNAc(b1-3)]Gal(b1-4)Glc
# Procedure, shortened: as §1
# [13] = target: Gal(b1-3)GlcNAc(b1-3)GalNAc
# Procedure, shortened: as §1
# [14] = target: Gal(b1-3)GlcNAc(b1-6)Gal(b1-4)GlcNAc
# Procedure, shortened: as §1
# [15] = target: Gal(b1-3)GlcNAc(b1-6)GalNAc
# Procedure, shortened: as §1
# [16] = target: Gal(b1-3)GlcNAc(b1-6)[Gal(b1-3)]GalNAc
# Procedure, shortened: as §1
# [17] = target: Gal(b1-3)GlcNAc6S
# Procedure, shortened: as §1
# [18] = target: Gal(b1-3)[Fuc(a1-4)]GlcNAc
# Procedure, shortened: as §1
# [19] = target: Gal(b1-3)[Fuc(a1-4)]GlcNAc(b1-2)Man
# Procedure, shortened: as §1
# [20] = target: Gal(b1-3)[Fuc(a1-4)]GlcNAc(b1-2)Man(a1-3)[Gal(b1-3)[Fuc(a1-4)]GlcNAc(b1-2)Man(a1-6)]Man(b1-4)GlcNAc(b1-4)[Fuc(a1-6)]GlcNAc
# Procedure, shortened: as §1
# [21] = target: Gal(b1-3)[Fuc(a1-4)]GlcNAc(b1-3)Gal(b1-3)[Fuc(a1-4)]GlcNAc
# Procedure, shortened: as §1
# [22] = target: Gal(b1-3)[Fuc(a1-4)]GlcNAc(b1-3)Gal(b1-4)[Fuc(a1-3)]GlcNAc
# Procedure, shortened: as §1
# [23] = target: Gal(b1-3)[Fuc(a1-4)]GlcNAc(b1-6)GalNAc
# Procedure, shortened: as §1
# [24] = target: Gal(b1-3)[GlcNAc(b1-6)]GalNAc
# Procedure, shortened: as §1
# [25] = target: Gal(b1-3)[Neu5Ac(a2-6)]GalNAc
# Procedure, shortened: as §1
# [26] = target: Gal(b1-3)[Neu5Ac(a2-6)]GlcNAc(b1-4)Gal(b1-4)Glc
# Procedure, shortened: as §1
# [27] = target: Gal(b1-3)[Neu5Ac(b2-6)]GalNAc
# Procedure, shortened: as §1
# [28] = target: Gal(b1-4)Gal
# Procedure, shortened: as §1
# [29] = target: Gal(b1-4)GalNAc(a1-3)[Fuc(a1-2)]Gal(b1-4)GlcNAc
# Procedure, shortened: as §1
# [30] = target: Gal(b1-4)GalNAc(b1-3)[Fuc(a1-2)]Gal(b1-4)GlcNAc
# Procedure, shortened: as §1
# [31] = target: Gal(b1-4)Glc
# Procedure, shortened: as §1
# [32] = target: Gal(b1-4)Glc6S
# Procedure, shortened: as §1
# [33] = target: Gal(b1-4)GlcNAc
# Procedure, shortened: as §1
# [34] = target: Gal(b1-4)GlcNAc(a1-6)Gal(b1-4)GlcNAc
# Procedure, shortened: as §1
# [35] = target: Gal(b1-4)GlcNAc(b1-2)Man
# Procedure, shortened: as §1
# [36] = target: Gal(b1-4)GlcNAc(b1-2)Man(a1-3)Man(b1-4)GlcNAc(b1-4)GlcNAc
# Procedure, shortened: as §1
# [37] = target: Gal(b1-4)GlcNAc(b1-2)Man(a1-3)[Gal(b1-4)GlcNAc(b1-2)Man(a1-6)]Man(b1-4)GlcNAc(b1-4)GlcNAc
# Procedure, shortened: as §1
# [38] = target: Gal(b1-4)GlcNAc(b1-2)Man(a1-3)[Gal(b1-4)GlcNAc(b1-2)Man(a1-6)]Man(b1-4)GlcNAc(b1-4)[Fuc(a1-6)]GlcNAc
# Procedure, shortened: as §1
# [39] = target: Gal(b1-4)GlcNAc(b1-2)Man(a1-3)[Gal(b1-4)GlcNAc(b1-2)Man(a1-6)][Gal(b1-4)GlcNAc(b1-4)]Man(b1-4)GlcNAc(b1-4)[Fuc(a1-6)]GlcNAc
# Procedure, shortened: as §1
# [40] = target: Gal(b1-4)GlcNAc(b1-2)Man(a1-3)[Gal(b1-4)GlcNAc(b1-2)Man(a1-6)][GlcNAc(b1-4)]Man(b1-4)GlcNAc(b1-4)[Fuc(a1-6)]GlcNAc
# Procedure, shortened: as §1
# [41] = target: Gal(b1-4)GlcNAc(b1-2)Man(a1-3)[GlcNAc(b1-2)Man(a1-6)]Man(b1-4)GlcNAc(b1-4)GlcNAc
# Procedure, shortened: as §1
# [42] = target: Gal(b1-4)GlcNAc(b1-2)Man(a1-3)[GlcNAc(b1-4)][Gal(b1-4)GlcNAc(b1-2)Man(a1-6)]Man(b1-4)GlcNAc(b1-4)GlcNAc
# Procedure, shortened: as §1
# [43] = target: Gal(b1-4)GlcNAc(b1-2)Man(a1-3)[Man(a1-6)]Man(b1-4)GlcNAc(b1-4)GlcNAc
# Procedure, shortened: as §1
# [44] = target: Gal(b1-4)GlcNAc(b1-2)Man(a1-6)Man(b1-4)GlcNAc(b1-4)GlcNAc
# Procedure, shortened: as §1
# [45] = target: Gal(b1-4)GlcNAc(b1-2)Man(a1-6)[GlcNAc(b1-2)Man(a1-3)]Man(b1-4)GlcNAc(b1-4)GlcNAc
# Procedure, shortened: as §1
binder,measurement,setting,value
B1,glycan array binding signal (z-score),[1],-0.837
same,glycan array binding signal (z-score),[2],0.089
same,glycan array binding signal (z-score),[3],-1.13
same,glycan array binding signal (z-score),[4],0.515
same,glycan array binding signal (z-score),[5],0.047
same,glycan array binding signal (z-score),[6],-1.19
same,glycan array binding signal (z-score),[7],0.06
same,glycan array binding signal (z-score),[8],1.23
same,glycan array binding signal (z-score),[9],1.3
same,glycan array binding signal (z-score),[10],-1.46
same,glycan array binding signal (z-score),[11],0.553
same,glycan array binding signal (z-score),[12],-0.506
same,glycan array binding signal (z-score),[13],-1.07
same,glycan array binding signal (z-score),[14],-1.12
same,glycan array binding signal (z-score),[15],0.023
same,glycan array binding signal (z-score),[16],-0.218
same,glycan array binding signal (z-score),[17],-0.208
same,glycan array binding signal (z-score),[18],1.38
same,glycan array binding signal (z-score),[19],-0.092
same,glycan array binding signal (z-score),[20],-0.463
same,glycan array binding signal (z-score),[21],-0.846
same,glycan array binding signal (z-score),[22],0.485
same,glycan array binding signal (z-score),[23],0.926
same,glycan array binding signal (z-score),[24],-1.03
same,glycan array binding signal (z-score),[25],-0.969
same,glycan array binding signal (z-score),[26],-0.531
same,glycan array binding signal (z-score),[27],-1.15
same,glycan array binding signal (z-score),[28],1.09
same,glycan array binding signal (z-score),[29],-0.731
same,glycan array binding signal (z-score),[30],-0.264
same,glycan array binding signal (z-score),[31],-1.08
same,glycan array binding signal (z-score),[32],-0.635
same,glycan array binding signal (z-score),[33],0.066
same,glycan array binding signal (z-score),[34],1.94
same,glycan array binding signal (z-score),[35],-0.758
same,glycan array binding signal (z-score),[36],0.1
same,glycan array binding signal (z-score),[37],3.09
same,glycan array binding signal (z-score),[38],-1.23
same,glycan array binding signal (z-score),[39],-0.792
same,glycan array binding signal (z-score),[40],-1.23
same,glycan array binding signal (z-score),[41],-0.832
same,glycan array binding signal (z-score),[42],-0.801
same,glycan array binding signal (z-score),[43],2.04
same,glycan array binding signal (z-score),[44],3.03
same,glycan array binding signal (z-score),[45],1.22

# Rewritten as tab-separated lines: entries from further up
binder	measurement	setting	value
B1	glycan array binding signal (z-score)	[15]	0.023
same	glycan array binding signal (z-score)	[24]	-1.03
